{"sequences": {"note": "The chains behind the UniProt entries cited, without tags or fusion partners. Where a name states a change or a piece, a line headed by the entry shows the natural chain unless it says otherwise.", "UniProt O08749": "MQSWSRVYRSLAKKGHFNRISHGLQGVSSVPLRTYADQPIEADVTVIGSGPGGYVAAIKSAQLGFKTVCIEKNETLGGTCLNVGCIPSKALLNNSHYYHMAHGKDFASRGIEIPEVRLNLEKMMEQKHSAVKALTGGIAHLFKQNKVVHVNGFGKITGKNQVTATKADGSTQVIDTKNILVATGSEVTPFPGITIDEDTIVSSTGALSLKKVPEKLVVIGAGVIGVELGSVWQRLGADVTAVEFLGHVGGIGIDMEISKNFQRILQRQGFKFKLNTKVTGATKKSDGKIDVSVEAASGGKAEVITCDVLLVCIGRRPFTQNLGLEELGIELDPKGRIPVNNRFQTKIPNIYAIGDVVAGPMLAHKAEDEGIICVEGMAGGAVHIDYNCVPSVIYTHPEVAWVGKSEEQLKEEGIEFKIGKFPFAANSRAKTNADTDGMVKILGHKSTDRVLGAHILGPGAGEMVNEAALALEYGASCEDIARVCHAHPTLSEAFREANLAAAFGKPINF", "UniProt O08709": "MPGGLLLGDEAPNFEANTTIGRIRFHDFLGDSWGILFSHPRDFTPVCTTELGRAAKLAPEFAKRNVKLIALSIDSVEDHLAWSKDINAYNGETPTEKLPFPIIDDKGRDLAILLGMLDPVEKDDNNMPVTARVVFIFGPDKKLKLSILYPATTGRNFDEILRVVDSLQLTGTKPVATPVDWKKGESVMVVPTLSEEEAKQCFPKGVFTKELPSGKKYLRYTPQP", "UniProt P00375": "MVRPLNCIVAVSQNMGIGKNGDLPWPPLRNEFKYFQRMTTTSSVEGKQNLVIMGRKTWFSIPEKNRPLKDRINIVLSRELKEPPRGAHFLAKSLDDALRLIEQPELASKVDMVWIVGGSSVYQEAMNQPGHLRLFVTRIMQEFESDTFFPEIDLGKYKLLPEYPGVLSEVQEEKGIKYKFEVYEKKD", "UniProt O88271, whole entry": "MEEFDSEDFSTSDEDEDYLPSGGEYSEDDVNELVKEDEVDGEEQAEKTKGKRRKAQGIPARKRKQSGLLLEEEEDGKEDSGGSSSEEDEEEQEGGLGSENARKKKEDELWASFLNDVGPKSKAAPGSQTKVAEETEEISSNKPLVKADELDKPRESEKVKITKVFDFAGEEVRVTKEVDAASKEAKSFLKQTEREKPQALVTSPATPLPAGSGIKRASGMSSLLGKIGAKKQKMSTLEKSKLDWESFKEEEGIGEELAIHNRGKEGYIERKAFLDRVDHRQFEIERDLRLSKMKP", "UniProt O89001": "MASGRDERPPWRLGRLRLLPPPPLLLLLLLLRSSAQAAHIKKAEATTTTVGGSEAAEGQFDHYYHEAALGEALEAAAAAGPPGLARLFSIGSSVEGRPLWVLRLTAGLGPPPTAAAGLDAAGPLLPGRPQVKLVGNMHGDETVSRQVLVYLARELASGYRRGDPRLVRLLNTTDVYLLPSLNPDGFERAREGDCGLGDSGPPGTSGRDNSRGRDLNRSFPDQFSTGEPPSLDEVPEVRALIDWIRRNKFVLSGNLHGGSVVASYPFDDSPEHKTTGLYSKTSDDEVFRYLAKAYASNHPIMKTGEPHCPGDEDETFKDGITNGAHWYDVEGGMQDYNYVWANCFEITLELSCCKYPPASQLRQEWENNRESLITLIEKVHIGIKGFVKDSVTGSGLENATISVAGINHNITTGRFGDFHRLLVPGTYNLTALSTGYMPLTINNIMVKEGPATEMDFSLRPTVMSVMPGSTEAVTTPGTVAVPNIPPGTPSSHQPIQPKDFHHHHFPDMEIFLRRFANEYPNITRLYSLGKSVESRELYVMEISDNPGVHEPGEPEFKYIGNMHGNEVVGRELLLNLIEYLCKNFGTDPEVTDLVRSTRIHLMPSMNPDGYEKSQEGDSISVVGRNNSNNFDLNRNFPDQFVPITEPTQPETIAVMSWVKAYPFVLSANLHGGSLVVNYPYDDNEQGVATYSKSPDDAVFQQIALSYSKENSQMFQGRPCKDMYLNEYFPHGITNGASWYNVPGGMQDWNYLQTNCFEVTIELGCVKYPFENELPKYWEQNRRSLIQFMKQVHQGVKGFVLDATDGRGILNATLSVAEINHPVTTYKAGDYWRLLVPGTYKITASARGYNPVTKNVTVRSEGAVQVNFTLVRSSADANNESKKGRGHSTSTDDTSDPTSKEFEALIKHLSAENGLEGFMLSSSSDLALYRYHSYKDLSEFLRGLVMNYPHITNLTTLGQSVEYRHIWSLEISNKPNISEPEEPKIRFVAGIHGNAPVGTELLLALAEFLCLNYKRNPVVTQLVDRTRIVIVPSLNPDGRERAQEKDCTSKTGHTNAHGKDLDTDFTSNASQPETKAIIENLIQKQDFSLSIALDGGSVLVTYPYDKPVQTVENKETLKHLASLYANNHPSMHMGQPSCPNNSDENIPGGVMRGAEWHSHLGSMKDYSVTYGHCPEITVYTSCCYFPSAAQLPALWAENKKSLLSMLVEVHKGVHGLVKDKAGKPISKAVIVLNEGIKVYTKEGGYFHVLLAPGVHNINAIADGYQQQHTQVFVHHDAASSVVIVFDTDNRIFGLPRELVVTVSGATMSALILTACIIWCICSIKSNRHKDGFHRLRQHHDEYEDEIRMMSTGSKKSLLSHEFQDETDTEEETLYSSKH", "UniProt O70439": "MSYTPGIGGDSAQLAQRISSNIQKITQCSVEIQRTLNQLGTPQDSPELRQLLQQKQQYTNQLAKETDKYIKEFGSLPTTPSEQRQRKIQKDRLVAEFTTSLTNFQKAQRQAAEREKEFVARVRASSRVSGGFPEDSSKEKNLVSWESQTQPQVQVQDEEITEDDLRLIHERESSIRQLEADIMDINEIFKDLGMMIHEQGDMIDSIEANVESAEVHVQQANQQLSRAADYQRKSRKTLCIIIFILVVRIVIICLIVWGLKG", "UniProt O35350": "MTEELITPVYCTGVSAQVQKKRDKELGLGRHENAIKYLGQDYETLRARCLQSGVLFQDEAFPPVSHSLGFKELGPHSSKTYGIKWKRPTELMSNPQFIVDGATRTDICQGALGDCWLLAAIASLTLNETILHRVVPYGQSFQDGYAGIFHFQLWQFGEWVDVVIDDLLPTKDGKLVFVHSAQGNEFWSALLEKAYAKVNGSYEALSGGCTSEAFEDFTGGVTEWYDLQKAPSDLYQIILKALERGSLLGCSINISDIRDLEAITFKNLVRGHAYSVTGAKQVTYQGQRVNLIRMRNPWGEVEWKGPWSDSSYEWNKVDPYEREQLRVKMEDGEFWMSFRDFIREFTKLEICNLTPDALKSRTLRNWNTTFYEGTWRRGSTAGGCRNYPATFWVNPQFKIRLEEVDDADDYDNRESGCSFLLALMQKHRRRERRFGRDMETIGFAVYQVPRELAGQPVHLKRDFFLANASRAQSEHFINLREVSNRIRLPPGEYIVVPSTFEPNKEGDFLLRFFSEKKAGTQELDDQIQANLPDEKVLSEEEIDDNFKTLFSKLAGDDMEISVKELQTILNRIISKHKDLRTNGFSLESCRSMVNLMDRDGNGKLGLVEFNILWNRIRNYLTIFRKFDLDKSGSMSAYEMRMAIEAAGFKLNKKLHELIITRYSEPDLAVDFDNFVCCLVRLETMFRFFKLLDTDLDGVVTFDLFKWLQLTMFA", "UniProt O70472": "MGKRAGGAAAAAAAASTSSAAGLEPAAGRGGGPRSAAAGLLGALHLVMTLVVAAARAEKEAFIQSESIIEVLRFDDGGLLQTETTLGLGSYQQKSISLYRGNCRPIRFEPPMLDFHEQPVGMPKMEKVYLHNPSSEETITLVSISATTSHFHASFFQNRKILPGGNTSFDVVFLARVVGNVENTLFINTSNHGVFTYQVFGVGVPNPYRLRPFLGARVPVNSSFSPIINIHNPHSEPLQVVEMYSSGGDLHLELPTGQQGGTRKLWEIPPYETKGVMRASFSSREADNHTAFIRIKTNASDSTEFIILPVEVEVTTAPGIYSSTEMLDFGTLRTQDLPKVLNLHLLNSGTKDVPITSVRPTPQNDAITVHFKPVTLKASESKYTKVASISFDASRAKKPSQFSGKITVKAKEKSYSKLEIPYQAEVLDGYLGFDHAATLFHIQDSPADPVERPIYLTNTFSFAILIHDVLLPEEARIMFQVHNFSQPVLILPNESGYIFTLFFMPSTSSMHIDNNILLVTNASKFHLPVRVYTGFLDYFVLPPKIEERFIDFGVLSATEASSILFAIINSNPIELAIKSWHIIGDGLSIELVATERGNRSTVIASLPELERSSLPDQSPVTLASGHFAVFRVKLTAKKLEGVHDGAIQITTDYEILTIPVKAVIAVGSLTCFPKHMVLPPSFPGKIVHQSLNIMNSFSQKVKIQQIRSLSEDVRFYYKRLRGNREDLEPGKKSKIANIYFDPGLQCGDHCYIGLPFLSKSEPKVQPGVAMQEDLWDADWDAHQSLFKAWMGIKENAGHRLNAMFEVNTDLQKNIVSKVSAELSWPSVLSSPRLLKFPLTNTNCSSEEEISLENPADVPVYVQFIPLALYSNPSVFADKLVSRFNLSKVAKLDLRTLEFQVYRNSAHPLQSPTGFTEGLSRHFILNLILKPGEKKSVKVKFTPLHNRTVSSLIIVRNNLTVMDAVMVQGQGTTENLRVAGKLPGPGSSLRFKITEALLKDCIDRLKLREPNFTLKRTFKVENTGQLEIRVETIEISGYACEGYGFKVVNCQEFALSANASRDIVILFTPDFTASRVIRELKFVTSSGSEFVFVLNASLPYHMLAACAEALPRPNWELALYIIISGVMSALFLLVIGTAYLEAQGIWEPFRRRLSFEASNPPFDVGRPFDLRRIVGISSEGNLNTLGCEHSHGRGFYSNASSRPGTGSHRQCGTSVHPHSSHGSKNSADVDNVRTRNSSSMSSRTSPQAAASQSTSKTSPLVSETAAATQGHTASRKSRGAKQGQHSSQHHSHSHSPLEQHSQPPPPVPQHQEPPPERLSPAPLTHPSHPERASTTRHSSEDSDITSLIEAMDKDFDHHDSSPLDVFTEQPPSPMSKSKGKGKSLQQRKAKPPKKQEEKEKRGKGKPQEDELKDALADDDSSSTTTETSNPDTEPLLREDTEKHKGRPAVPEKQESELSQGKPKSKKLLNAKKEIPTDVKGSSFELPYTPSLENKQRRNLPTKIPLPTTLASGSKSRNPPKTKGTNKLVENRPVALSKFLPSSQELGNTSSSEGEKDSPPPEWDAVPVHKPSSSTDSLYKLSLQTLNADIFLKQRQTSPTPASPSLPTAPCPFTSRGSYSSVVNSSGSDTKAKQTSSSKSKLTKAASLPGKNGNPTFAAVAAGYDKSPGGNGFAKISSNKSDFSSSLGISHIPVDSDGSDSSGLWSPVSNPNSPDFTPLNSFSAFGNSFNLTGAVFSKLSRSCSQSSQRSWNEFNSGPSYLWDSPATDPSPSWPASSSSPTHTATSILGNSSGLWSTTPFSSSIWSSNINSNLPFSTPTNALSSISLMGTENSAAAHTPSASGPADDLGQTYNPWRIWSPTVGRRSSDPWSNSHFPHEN", "UniProt O08807": "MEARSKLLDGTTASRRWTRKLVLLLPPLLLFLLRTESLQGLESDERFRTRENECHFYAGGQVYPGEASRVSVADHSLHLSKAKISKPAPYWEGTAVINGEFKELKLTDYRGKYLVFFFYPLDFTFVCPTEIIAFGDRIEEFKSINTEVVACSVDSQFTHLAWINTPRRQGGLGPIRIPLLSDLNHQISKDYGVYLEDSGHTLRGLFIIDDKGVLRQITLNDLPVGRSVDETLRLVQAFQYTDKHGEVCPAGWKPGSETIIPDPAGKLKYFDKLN", "UniProt O08756": "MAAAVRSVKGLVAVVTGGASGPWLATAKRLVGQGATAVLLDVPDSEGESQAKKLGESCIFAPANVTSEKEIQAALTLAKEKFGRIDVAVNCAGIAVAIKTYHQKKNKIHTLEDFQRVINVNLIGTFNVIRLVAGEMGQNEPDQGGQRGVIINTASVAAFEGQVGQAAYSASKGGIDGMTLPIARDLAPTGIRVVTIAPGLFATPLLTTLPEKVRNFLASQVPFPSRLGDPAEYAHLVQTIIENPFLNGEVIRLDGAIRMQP", "UniProt O55234": "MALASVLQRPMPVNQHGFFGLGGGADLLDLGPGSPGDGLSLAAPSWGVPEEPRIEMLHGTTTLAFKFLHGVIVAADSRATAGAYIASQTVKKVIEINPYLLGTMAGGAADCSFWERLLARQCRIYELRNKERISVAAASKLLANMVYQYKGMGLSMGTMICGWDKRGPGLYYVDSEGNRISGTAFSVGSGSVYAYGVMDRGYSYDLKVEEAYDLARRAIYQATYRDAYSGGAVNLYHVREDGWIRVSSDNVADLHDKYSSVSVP", "UniProt O54909": "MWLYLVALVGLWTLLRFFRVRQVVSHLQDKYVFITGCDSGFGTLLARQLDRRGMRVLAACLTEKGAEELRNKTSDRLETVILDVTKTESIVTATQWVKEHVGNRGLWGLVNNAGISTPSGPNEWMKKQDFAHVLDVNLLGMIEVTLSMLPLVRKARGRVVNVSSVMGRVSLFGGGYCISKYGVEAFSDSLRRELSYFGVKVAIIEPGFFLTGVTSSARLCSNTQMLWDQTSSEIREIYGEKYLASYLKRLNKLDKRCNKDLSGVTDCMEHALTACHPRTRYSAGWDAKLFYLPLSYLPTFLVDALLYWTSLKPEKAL"}, "source": "the supplement of paper PMC12819154", "about": "“High-throughput peptide-centric local stability assay extends protein–ligand identification to membrane proteins, tissues and bacteria” (Nature Structural & Molecular Biology, 2025)", "note": "The other results are listed elsewhere or left out. Most entries show no effect beyond the scatter of the controls."}
{"compound": "CN[C@@H]1C[C@H]2O[C@@](C)([C@@H]1OC)n1c3ccccc3c3c4c(c5c6ccccc6n2c5c31)C(=O)NC4 [staurosporine]", "assay": "log2 fold change of pooled soluble protein (PISA), ligand vs vehicle (log2 ratio); higher = more thermally stabilized", "conditions": "ligand concentration: 20 uM; assay format: PISA pool 52.9/55.5/58.6 C"}
{"target": "UniProt O88947", "log2 fold change of pooled soluble protein": 0.154}
{"target": "UniProt O88343", "log2 fold change of pooled soluble protein": 0.269}
{"target": "UniProt O08663", "log2 fold change of pooled soluble protein": -0.00725}
{"target": "UniProt O08983", "log2 fold change of pooled soluble protein": 0.111}
{"target": "UniProt O08749", "log2 fold change of pooled soluble protein": -0.0327}
{"target": "UniProt O35682", "log2 fold change of pooled soluble protein": -0.149}
{"target": "UniProt O35490", "log2 fold change of pooled soluble protein": -0.306}
{"target": "UniProt O55022", "log2 fold change of pooled soluble protein": 0.0606}
{"target": "UniProt O35887", "log2 fold change of pooled soluble protein": 0.166}
{"target": "UniProt O70572", "log2 fold change of pooled soluble protein": 0.266}
{"target": "UniProt O08709", "log2 fold change of pooled soluble protein": 0.0539}
{"target": "UniProt O09110", "log2 fold change of pooled soluble protein": 1.01}
{"target": "UniProt P00375", "log2 fold change of pooled soluble protein": -0.0471}
{"target": "UniProt O70194", "log2 fold change of pooled soluble protein": -0.0348}
{"target": "UniProt O88271", "log2 fold change of pooled soluble protein": -0.0515}
{"target": "UniProt P01867", "log2 fold change of pooled soluble protein": -0.0224}
{"target": "UniProt O88286", "log2 fold change of pooled soluble protein": -0.325}
{"target": "UniProt O89001", "log2 fold change of pooled soluble protein": -0.137}
{"target": "UniProt F8VPU2", "log2 fold change of pooled soluble protein": 0.125}
{"target": "UniProt P01837", "log2 fold change of pooled soluble protein": -0.41}
{"target": "UniProt O88545", "log2 fold change of pooled soluble protein": 0.109}
{"target": "UniProt O70439", "log2 fold change of pooled soluble protein": -0.0646}
{"target": "UniProt O09158", "log2 fold change of pooled soluble protein": 0.0335}
{"target": "UniProt O35350", "log2 fold change of pooled soluble protein": -0.196}
{"target": "UniProt P01831", "log2 fold change of pooled soluble protein": 0.0905}
{"target": "UniProt O55176", "log2 fold change of pooled soluble protein": -0.122}
{"target": "UniProt O88712", "log2 fold change of pooled soluble protein": 0.0264}
{"target": "UniProt O70472", "log2 fold change of pooled soluble protein": 0.112}
{"target": "UniProt O08807", "log2 fold change of pooled soluble protein": -0.361}
{"target": "UniProt O08756", "log2 fold change of pooled soluble protein": -0.00275}
{"target": "UniProt O55229", "log2 fold change of pooled soluble protein": -0.05}
{"target": "UniProt O88384", "log2 fold change of pooled soluble protein": -0.0303}
{"target": "UniProt O55234", "log2 fold change of pooled soluble protein": 0.0375}
{"target": "UniProt O54909", "log2 fold change of pooled soluble protein": 0.385}
{"target": "UniProt O35453", "log2 fold change of pooled soluble protein": -0.114}
{"target": "UniProt O35737", "log2 fold change of pooled soluble protein": -0.0749}
{"target": "UniProt O88822", "log2 fold change of pooled soluble protein": -0.0981}
